# Data published in the supplement of paper PMC8728848.
# The list shows a part of the results.
# B1: CD72 ectodomain (Homo sapiens), P21854 (protein)
# chain: RYLQVSQQLQQTNRVLEVTNSSLRQQLRLKITQLGQSAEDLQGSRRELAQSQEALQVEQRAHQAAEGQLQACQADRQKTKETLQSEEQQRRALEQKLSNMENRLKPFFTCGSADTCCPSGWIMHQKSCFYISLTSKNWQESQKQCETLSSKLATFSEIYPQSHSYYFLNSLLPNGGSGNSYWTGLSSNKDWKLTDDTQRTRTYAQSSKCNKVHKTWSWWTLESESCRSSLPYICEMTAFRFPD
# Experiments:
# Experiment in all cases: glycan array binding signal (z-score within array); higher = stronger binding
# Conditions in all cases: glycan notation: IUPAC condensed, linker removed
# [1] = target: Neu5Ac(a2-3)Gal(b1-4)GlcNAc(b1-3)GalNAc
# In short: (§1)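 Columns mapping to the same glycan were averaged after glycan names were converted to IUPAC-condensed notation. The data come from 3228 arrays in the Consortium for Functional Glycomics database, limited to those with an available protein sequence. Binding is reported as a within-array Z-score averaged across arrays of one protein sequence and across linkers.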
# [2] = target: Neu5Ac(a2-3)Gal(b1-4)GlcNAc(b1-6)[Gal(b1-3)]GalNAc
# In short: as §1
# [3] = target: Neu5Ac(a2-3)Gal(b1-4)GlcNAc(b1-6)[Neu5Ac(a2-3)Gal(b1-3)]GalNAc
# In short: as §1
# [4] = target: Neu5Ac(a2-3)Gal(b1-4)GlcNAc6S
# In short: as §1
# [5] = target: Neu5Ac(a2-3)Gal(b1-4)[Fuc(a1-3)]GlcNAc
# In short: as §1
# [6] = target: Neu5Ac(a2-3)Gal(b1-4)[Fuc(a1-3)]GlcNAc(b1-3)Gal
# In short: as §1
# [7] = target: Neu5Ac(a2-3)Gal(b1-4)[Fuc(a1-3)]GlcNAc(b1-3)Gal(b1-4)GlcNAc
# In short: as §1
# [8] = target: Neu5Ac(a2-3)Gal(b1-4)[Fuc(a1-3)]GlcNAc(b1-3)Gal(b1-4)[Fuc(a1-3)]GlcNAc(b1-3)Gal(b1-4)[Fuc(a1-3)]GlcNAc
# In short: as §1
# [9] = target: Neu5Ac(a2-3)Gal(b1-4)[Fuc(a1-3)]GlcNAc(b1-3)GalNAc
# In short: as §1
# [10] = target: Neu5Ac(a2-3)Gal(b1-4)[Fuc(a1-3)]GlcNAc(b1-6)[Gal(b1-3)]GalNAc
# In short: as §1
# [11] = target: Neu5Ac(a2-3)Gal(b1-4)[Fuc(a1-3)]GlcNAc6S
# In short: as §1
# [12] = target: Neu5Ac(a2-3)Gal6S(b1-4)GlcNAc
# In short: as §1
# [13] = target: Neu5Ac(a2-3)Gal6S(b1-4)[Fuc(a1-3)]GlcNAc
# In short: as §1
# Neu5Ac(a2-3)GalNAc = target: Neu5Ac(a2-3)GalNAc
# In short: as §1
# [14] = target: Neu5Ac(a2-3)GalNAc(b1-4)GlcNAc
# In short: as §1
# [15] = target: Neu5Ac(a2-3)[GalNAc(b1-4)]Gal(b1-4)Glc
# In short: as §1
# [16] = target: Neu5Ac(a2-3)[GalNAc(b1-4)]Gal(b1-4)GlcNAc
# In short: as §1
# [17] = target: Neu5Ac(a2-3)[GalNAc(b1-4)]Gal(b1-4)GlcNAc(b1-3)GalNAc
# In short: as §1
# [18] = target: Neu5Ac(a2-3)[Neu5Ac(a2-6)]GalNAc
# In short: as §1
# Neu5Ac(a2-6)Gal = target: Neu5Ac(a2-6)Gal
# In short: as §1
# [19] = target: Neu5Ac(a2-6)Gal(b1-3)GlcNAc(b1-3)[Gal(b1-4)GlcNAc(b1-6)]Gal(b1-4)Glc
# In short: as §1
# Neu5Ac(a2-6)Gal(b1-4)Glc = target: Neu5Ac(a2-6)Gal(b1-4)Glc
# In short: as §1
# [20] = target: Neu5Ac(a2-6)Gal(b1-4)GlcNAc
# In short: as §1
# [21] = target: Neu5Ac(a2-6)Gal(b1-4)GlcNAc(b1-2)Man(a1-3)Man(b1-4)GlcNAc(b1-4)GlcNAc
# In short: as §1
# [22] = target: Neu5Ac(a2-6)Gal(b1-4)GlcNAc(b1-2)Man(a1-3)[Gal(b1-4)GlcNAc(b1-2)Man(a1-6)]Man(b1-4)GlcNAc(b1-4)GlcNAc
# In short: as §1
# [23] = target: Neu5Ac(a2-6)Gal(b1-4)GlcNAc(b1-2)Man(a1-3)[GlcNAc(b1-2)Man(a1-6)]Man(b1-4)GlcNAc(b1-4)GlcNAc
# In short: as §1
# [24] = target: Neu5Ac(a2-6)Gal(b1-4)GlcNAc(b1-2)Man(a1-3)[GlcNAc(b1-2)Man(b1-4)GlcNAc(b1-2)Man(a1-6)]Man(b1-4)GlcNAc(b1-4)GlcNAc
# In short: as §1
# [25] = target: Neu5Ac(a2-6)Gal(b1-4)GlcNAc(b1-2)Man(a1-3)[Man(a1-6)]Man(b1-4)GlcNAc(b1-4)GlcNAc
# In short: as §1
# [26] = target: Neu5Ac(a2-6)Gal(b1-4)GlcNAc(b1-2)Man(a1-3)[Neu5Ac(a2-6)Gal(b1-4)GlcNAc(b1-2)Man(a1-6)]Man(b1-4)GlcNAc(b1-4)GlcNAc
# In short: as §1
# [27] = target: Neu5Ac(a2-6)Gal(b1-4)GlcNAc(b1-2)Man(a1-6)Man(b1-4)GlcNAc(b1-4)GlcNAc
# In short: as §1
# [28] = target: Neu5Ac(a2-6)Gal(b1-4)GlcNAc(b1-2)Man(a1-6)[Gal(b1-4)GlcNAc(b1-2)Man(a1-3)]Man(b1-4)GlcNAc(b1-4)GlcNAc
# In short: as §1
# [29] = target: Neu5Ac(a2-6)Gal(b1-4)GlcNAc(b1-2)Man(a1-6)[GlcNAc(b1-2)Man(a1-3)]Man(b1-4)GlcNAc(b1-4)GlcNAc
# In short: as §1
# [30] = target: Neu5Ac(a2-6)Gal(b1-4)GlcNAc(b1-2)Man(a1-6)[Man(a1-3)]Man(b1-4)GlcNAc(b1-4)GlcNAc
# In short: as §1
# [31] = target: Neu5Ac(a2-6)Gal(b1-4)GlcNAc(b1-3)Gal(b1-3)GlcNAc
# In short: as §1
# [32] = target: Neu5Ac(a2-6)Gal(b1-4)GlcNAc(b1-3)Gal(b1-4)GlcNAc
# In short: as §1
# [33] = target: Neu5Ac(a2-6)Gal(b1-4)GlcNAc(b1-3)Gal(b1-4)GlcNAc(b1-3)Gal(b1-4)GlcNAc
# In short: as §1
# [34] = target: Neu5Ac(a2-6)Gal(b1-4)GlcNAc(b1-3)Gal(b1-4)[Fuc(a1-3)]GlcNAc(b1-3)Gal(b1-4)[Fuc(a1-3)]GlcNAc
# In short: as §1
# [35] = target: Neu5Ac(a2-6)Gal(b1-4)GlcNAc(b1-3)GalNAc
# In short: as §1
# [36] = target: Neu5Ac(a2-6)Gal(b1-4)GlcNAc6S
# In short: as §1
# Neu5Ac(a2-6)GalNAc = target: Neu5Ac(a2-6)GalNAc
# In short: as §1
# [37] = target: Neu5Ac(a2-6)GalNAc(b1-4)GlcNAc
# In short: as §1
# [38] = target: Neu5Ac(a2-6)GlcNAc(b1-4)GlcNAc
# In short: as §1
# [39] = target: Neu5Ac(a2-6)GlcNAc(b1-4)GlcNAc(b1-4)GlcNAc
# In short: as §1
# Neu5Ac(a2-8)Neu5Ac = target: Neu5Ac(a2-8)Neu5Ac
# In short: as §1
# [40] = target: Neu5Ac(a2-8)Neu5Ac(a2-3)Gal(b1-3)GalNAc(b1-4)[Neu5Ac(a2-8)Neu5Ac(a2-3)]Gal(b1-4)Glc
# In short: as §1
# [41] = target: Neu5Ac(a2-8)Neu5Ac(a2-3)Gal(b1-4)Glc
# In short: as §1
# [42] = target: Neu5Ac(a2-8)Neu5Ac(a2-3)[Gal(b1-3)GalNAc(b1-4)]Gal(b1-4)Glc
# In short: as §1
# [43] = target: Neu5Ac(a2-8)Neu5Ac(a2-3)[GalNAc(b1-4)]Gal(b1-4)Glc
# In short: as §1
# [44] = target: Neu5Ac(a2-8)Neu5Ac(a2-8)Neu5Ac
# In short: as §1
# [45] = target: Neu5Ac(a2-8)Neu5Ac(a2-8)Neu5Ac(a2-3)Gal(b1-4)Glc
# In short: as §1
# [46] = target: Neu5Ac(a2-8)Neu5Ac(a2-8)Neu5Ac(a2-3)[GalNAc(b1-4)]Gal(b1-4)Glc
# In short: as §1
# [47] = target: Neu5Ac(a2-8)Neu5Ac(a2-8)Neu5Ac(a2-8)Neu5Ac(a2-3)[GalNAc(b1-4)]Gal(b1-4)Glc
# In short: as §1
# [48] = target: Neu5Ac(b2-6)Gal(b1-4)GlcNAc
# In short: as §1
# Neu5Ac(b2-6)GalNAc = target: Neu5Ac(b2-6)GalNAc
# In short: as §1
# [49] = target: Neu5Ac9Ac(a2-3)Gal(b1-3)GlcNAc
# In short: as §1
# [50] = target: Neu5Ac9Ac(a2-3)Gal(b1-4)GlcNAc
# In short: as §1
# [51] = target: Neu5Ac9Ac(a2-6)Gal(b1-4)GlcNAc
# In short: as §1
# [52] = target: Neu5Gc(a2-3)Gal(b1-3)GlcNAc
# In short: as §1
# [53] = target: Neu5Gc(a2-3)Gal(b1-3)[Fuc(a1-4)]GlcNAc
# In short: as §1
# Neu5Gc(a2-3)Gal(b1-4)Glc = target: Neu5Gc(a2-3)Gal(b1-4)Glc
# In short: as §1
# [54] = target: Neu5Gc(a2-3)Gal(b1-4)GlcNAc
# In short: as §1
# [55] = target: Neu5Gc(a2-3)Gal(b1-4)[Fuc(a1-3)]GlcNAc
# In short: as §1
# [56] = target: Neu5Gc(a2-6)Gal(b1-4)GlcNAc
# In short: as §1
# Neu5Gc(a2-6)GalNAc = target: Neu5Gc(a2-6)GalNAc
# In short: as §1
# [57] = target: Neu5Gc(b2-6)Gal(b1-4)GlcNAc
# In short: as §1
binder,measurement,setting,value
B1,glycan array binding signal (z-score),[1],1.21
same,glycan array binding signal (z-score),[2],-0.18
same,glycan array binding signal (z-score),[3],-0.389
same,glycan array binding signal (z-score),[4],0.59
same,glycan array binding signal (z-score),[5],-0.591
same,glycan array binding signal (z-score),[6],-0.755
same,glycan array binding signal (z-score),[7],0.41
same,glycan array binding signal (z-score),[8],1.73
same,glycan array binding signal (z-score),[9],1.77
same,glycan array binding signal (z-score),[10],-1.21
same,glycan array binding signal (z-score),[11],-0.142
same,glycan array binding signal (z-score),[12],-0.796
same,glycan array binding signal (z-score),[13],-0.268
same,glycan array binding signal (z-score),Neu5Ac(a2-3)GalNAc,-0.043
same,glycan array binding signal (z-score),[14],-0.397
same,glycan array binding signal (z-score),[15],0.769
same,glycan array binding signal (z-score),[16],0.096
same,glycan array binding signal (z-score),[17],-0.312
same,glycan array binding signal (z-score),[18],0.913
same,glycan array binding signal (z-score),Neu5Ac(a2-6)Gal,0.052
same,glycan array binding signal (z-score),[19],0.399
same,glycan array binding signal (z-score),Neu5Ac(a2-6)Gal(b1-4)Glc,-0.503
same,glycan array binding signal (z-score),[20],-0.323
same,glycan array binding signal (z-score),[21],-0.04
same,glycan array binding signal (z-score),[22],-0.942
same,glycan array binding signal (z-score),[23],0.516
same,glycan array binding signal (z-score),[24],-0.452
same,glycan array binding signal (z-score),[25],0.787
same,glycan array binding signal (z-score),[26],0.219
same,glycan array binding signal (z-score),[27],-0.717
same,glycan array binding signal (z-score),[28],0.833
same,glycan array binding signal (z-score),[29],0.781
same,glycan array binding signal (z-score),[30],-0.831
same,glycan array binding signal (z-score),[31],-0.438
same,glycan array binding signal (z-score),[32],0.243
same,glycan array binding signal (z-score),[33],0.371
same,glycan array binding signal (z-score),[34],-0.002
same,glycan array binding signal (z-score),[35],-0.502
same,glycan array binding signal (z-score),[36],-0.391
same,glycan array binding signal (z-score),Neu5Ac(a2-6)GalNAc,-0.291
same,glycan array binding signal (z-score),[37],-0.489
same,glycan array binding signal (z-score),[38],-1.1
same,glycan array binding signal (z-score),[39],-0.102
same,glycan array binding signal (z-score),Neu5Ac(a2-8)Neu5Ac,0.663
same,glycan array binding signal (z-score),[40],0.757
same,glycan array binding signal (z-score),[41],0.194
same,glycan array binding signal (z-score),[42],0.027
same,glycan array binding signal (z-score),[43],-0.033
same,glycan array binding signal (z-score),[44],0.619
same,glycan array binding signal (z-score),[45],-0.33
same,glycan array binding signal (z-score),[46],-1.1
same,glycan array binding signal (z-score),[47],-0.171
same,glycan array binding signal (z-score),[48],0.158
same,glycan array binding signal (z-score),Neu5Ac(b2-6)GalNAc,-0.169
same,glycan array binding signal (z-score),[49],1.21
same,glycan array binding signal (z-score),[50],-0.525
same,glycan array binding signal (z-score),[51],0.69
same,glycan array binding signal (z-score),[52],-0.864
same,glycan array binding signal (z-score),[53],0.943
same,glycan array binding signal (z-score),Neu5Gc(a2-3)Gal(b1-4)Glc,-0.431
same,glycan array binding signal (z-score),[54],0.844
same,glycan array binding signal (z-score),[55],-0.217
same,glycan array binding signal (z-score),[56],0.368
same,glycan array binding signal (z-score),Neu5Gc(a2-6)GalNAc,-0.685
same,glycan array binding signal (z-score),[57],-1.35

# Taken from above (4 entries):
binder,measurement,setting,value
B1,glycan array binding signal (z-score),[45],-0.33
same,glycan array binding signal (z-score),[46],-1.1
same,glycan array binding signal (z-score),[47],-0.171
same,glycan array binding signal (z-score),[48],0.158
